The values below come from publication PMC4704385.

Sequences of proteins named here, by UniProt entry; tags and fusion partners are left off.
UniProt P14618: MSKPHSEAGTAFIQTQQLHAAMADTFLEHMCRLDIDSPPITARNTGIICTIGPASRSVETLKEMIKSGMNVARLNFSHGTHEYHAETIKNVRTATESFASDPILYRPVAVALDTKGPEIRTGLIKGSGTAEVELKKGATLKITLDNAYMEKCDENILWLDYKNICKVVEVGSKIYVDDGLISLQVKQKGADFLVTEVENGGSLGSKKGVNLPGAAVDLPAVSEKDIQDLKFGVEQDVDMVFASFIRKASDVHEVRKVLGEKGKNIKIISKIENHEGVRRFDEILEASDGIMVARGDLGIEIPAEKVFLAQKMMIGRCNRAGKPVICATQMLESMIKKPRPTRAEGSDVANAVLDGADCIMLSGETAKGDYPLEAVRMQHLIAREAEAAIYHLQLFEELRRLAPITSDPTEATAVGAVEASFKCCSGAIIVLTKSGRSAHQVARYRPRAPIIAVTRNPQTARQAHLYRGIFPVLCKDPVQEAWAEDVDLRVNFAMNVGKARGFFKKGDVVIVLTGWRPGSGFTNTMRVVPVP
UniProt Q04206: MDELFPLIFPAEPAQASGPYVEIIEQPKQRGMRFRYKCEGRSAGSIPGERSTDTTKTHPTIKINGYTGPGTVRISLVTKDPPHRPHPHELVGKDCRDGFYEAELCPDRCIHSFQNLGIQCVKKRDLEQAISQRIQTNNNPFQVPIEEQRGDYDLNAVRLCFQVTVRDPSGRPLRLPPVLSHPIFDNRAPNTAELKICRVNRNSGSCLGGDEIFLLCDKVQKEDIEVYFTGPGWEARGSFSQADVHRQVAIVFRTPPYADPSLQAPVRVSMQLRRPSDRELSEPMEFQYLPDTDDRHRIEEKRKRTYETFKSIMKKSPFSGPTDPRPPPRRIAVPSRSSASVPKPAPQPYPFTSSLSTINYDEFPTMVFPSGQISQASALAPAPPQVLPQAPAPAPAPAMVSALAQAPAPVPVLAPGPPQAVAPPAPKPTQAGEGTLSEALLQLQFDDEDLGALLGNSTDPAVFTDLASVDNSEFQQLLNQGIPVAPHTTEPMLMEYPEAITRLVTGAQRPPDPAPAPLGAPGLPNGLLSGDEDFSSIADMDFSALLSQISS
UniProt Q16665: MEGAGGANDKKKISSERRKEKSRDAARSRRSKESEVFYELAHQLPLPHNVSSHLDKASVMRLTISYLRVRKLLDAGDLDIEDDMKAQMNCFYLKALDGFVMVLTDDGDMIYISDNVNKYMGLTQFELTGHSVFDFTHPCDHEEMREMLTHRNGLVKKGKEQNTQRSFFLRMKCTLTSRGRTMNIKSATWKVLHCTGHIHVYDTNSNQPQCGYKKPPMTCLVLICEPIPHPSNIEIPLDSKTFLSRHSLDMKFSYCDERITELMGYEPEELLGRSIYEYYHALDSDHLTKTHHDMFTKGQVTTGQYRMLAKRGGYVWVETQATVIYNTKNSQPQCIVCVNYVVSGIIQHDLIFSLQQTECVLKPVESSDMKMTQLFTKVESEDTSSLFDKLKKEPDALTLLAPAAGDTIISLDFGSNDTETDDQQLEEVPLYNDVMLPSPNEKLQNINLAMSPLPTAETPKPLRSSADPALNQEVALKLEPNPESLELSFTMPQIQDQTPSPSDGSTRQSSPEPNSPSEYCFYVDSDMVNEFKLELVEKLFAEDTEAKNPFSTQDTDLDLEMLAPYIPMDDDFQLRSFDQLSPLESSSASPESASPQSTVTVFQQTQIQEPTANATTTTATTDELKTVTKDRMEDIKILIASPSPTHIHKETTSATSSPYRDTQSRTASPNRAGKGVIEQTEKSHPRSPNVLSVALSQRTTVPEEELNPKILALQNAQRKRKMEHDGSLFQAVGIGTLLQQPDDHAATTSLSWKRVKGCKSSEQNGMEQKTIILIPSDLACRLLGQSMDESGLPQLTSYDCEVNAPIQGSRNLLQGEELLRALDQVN

Results are given in words; binding and its absence hold for the method and conditions named. In cells and extracts the contact can be indirect. Some results given as binding are weak or reduced against the parent protein; the word gives no strength.

Test [1] deals with M2 isoform of pyruvate kinase (PKM2) (human (endogenous in PaTu2 and BxPC3)) (UniProt P14618). The experiment in a line: co-IP; immunoprecipitation of endogenous PKM2 from lysates of PaTu2 cells cultivated in normoxia or hypoxia; blot for HIF-1α and PKM2; IP lysis buffer 10 mM Tris-HCl, 5 mM EDTA, 50 mM NaCl, 50 mM NaF, 1 % Triton X100; 2 μg antibody and Protein G-Sepharose.
Test [2] deals with NF-κB subunit p65/RelA (human (endogenous in PaTu2 and BxPC3)) (UniProt Q04206). The experiment in a line: co-IP; immunoprecipitation of endogenous p65 from lysates of PaTu2 and BxPC3 cells; blot for PKM2, reprobed for p65; IP lysis buffer 10 mM Tris-HCl, 5 mM EDTA, 50 mM NaCl, 50 mM NaF, 1 % Triton X100; 2 μg antibody and Protein G-Sepharose.

On to “hypoxia-inducible factor alpha (HIF-1α) (from UniProt Q16665 1-826)”, for which the binding result in test [1] is on record as “binds”.
In the case of “M2 isoform of pyruvate kinase (PKM2) (from UniProt P14618 1-531)”, the binding result in test [2] is “binds”.
